These results are taken from the supplement of paper PMC10849652.

The chains behind the UniProt entries cited, without tags or fusion partners. Where a name states a change or a piece, a line headed by the entry shows the natural chain unless it says otherwise.
UniProt Q5T8P6: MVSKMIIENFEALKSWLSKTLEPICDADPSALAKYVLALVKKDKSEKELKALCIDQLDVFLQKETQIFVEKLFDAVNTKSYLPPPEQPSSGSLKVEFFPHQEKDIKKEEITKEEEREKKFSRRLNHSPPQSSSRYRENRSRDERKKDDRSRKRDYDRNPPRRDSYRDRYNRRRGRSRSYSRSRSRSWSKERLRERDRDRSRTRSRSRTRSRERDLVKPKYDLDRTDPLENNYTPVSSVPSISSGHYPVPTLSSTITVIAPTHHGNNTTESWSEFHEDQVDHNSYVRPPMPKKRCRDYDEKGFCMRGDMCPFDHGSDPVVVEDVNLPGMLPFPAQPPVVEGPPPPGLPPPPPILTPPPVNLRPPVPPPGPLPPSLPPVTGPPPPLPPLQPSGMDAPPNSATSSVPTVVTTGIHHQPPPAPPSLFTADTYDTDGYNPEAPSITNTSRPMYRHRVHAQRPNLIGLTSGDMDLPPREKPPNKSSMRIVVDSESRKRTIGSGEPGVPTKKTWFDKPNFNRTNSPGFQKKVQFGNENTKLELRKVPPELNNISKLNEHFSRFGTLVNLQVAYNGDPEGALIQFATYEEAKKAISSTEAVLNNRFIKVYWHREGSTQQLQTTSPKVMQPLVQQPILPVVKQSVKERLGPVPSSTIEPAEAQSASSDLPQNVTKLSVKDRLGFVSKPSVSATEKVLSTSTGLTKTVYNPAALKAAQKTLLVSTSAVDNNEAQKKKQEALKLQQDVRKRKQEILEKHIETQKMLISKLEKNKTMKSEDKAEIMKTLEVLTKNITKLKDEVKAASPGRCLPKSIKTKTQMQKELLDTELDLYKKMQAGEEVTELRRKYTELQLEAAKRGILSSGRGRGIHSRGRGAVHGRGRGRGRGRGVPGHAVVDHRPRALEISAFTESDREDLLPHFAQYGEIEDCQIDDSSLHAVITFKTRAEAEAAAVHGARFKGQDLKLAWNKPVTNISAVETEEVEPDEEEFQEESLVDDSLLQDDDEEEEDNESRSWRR
UniProt P46063: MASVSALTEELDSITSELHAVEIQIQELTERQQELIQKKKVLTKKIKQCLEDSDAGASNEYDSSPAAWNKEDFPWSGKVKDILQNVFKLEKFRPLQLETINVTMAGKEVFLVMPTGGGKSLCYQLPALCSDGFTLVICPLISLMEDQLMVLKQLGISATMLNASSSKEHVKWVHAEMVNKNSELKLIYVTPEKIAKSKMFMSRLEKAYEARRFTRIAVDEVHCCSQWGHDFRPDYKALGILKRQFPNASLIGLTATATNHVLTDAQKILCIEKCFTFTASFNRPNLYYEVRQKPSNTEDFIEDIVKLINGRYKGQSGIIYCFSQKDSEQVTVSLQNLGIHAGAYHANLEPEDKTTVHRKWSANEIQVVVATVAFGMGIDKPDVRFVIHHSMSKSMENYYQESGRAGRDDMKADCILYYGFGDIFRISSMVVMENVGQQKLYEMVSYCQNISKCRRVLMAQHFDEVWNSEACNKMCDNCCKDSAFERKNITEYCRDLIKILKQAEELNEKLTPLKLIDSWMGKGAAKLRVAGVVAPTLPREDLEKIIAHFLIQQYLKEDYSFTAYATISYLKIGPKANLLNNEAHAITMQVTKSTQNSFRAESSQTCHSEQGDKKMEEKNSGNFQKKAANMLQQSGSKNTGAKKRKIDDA
UniProt P35251: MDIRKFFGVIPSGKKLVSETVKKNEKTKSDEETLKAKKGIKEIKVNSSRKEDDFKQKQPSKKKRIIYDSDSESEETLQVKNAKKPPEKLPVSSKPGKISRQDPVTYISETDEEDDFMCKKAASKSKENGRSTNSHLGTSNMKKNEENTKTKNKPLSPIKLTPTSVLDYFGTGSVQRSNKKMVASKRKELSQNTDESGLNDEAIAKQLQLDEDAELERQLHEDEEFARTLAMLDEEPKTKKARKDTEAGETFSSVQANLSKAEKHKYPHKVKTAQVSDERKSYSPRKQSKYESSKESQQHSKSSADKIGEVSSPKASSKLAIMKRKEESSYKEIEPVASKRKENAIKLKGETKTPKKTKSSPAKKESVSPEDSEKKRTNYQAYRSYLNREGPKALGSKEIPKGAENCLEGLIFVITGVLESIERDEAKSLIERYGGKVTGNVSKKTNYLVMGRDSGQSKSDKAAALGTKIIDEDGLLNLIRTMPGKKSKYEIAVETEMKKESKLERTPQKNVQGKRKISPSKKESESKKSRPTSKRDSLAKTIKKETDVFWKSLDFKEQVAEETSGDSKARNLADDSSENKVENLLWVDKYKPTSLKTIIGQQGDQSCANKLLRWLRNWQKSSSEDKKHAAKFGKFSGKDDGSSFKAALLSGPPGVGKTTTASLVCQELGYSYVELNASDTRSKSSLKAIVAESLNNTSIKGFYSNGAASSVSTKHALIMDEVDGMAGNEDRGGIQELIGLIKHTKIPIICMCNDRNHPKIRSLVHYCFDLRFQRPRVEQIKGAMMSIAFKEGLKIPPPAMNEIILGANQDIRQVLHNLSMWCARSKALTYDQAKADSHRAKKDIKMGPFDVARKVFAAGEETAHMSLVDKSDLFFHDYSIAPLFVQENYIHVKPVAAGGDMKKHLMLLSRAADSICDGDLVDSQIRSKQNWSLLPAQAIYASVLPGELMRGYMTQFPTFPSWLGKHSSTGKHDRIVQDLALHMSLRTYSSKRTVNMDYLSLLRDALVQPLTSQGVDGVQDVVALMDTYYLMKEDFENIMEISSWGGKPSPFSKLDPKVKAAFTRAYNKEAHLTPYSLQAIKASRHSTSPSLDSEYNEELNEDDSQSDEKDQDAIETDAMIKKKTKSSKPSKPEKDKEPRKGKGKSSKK
UniProt Q6PCD5: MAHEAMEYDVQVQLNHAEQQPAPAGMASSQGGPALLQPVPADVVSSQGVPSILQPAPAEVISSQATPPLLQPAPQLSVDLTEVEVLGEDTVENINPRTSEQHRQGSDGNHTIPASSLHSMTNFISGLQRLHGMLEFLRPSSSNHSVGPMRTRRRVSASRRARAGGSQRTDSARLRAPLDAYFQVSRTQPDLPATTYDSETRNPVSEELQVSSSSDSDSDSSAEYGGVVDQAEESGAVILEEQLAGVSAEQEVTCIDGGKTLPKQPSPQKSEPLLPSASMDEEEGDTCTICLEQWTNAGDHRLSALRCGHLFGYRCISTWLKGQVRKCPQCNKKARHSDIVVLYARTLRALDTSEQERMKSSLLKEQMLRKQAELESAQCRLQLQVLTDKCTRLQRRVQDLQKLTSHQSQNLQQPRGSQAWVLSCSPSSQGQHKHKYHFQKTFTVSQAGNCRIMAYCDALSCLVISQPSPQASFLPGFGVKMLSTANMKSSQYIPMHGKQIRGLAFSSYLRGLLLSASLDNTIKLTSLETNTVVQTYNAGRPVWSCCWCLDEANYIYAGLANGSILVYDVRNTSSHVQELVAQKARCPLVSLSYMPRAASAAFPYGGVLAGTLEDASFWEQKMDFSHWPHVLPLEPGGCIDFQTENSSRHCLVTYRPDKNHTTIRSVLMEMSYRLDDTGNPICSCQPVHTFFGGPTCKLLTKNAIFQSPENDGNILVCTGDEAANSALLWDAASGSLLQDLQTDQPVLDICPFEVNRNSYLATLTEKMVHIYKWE
UniProt Q96HR9: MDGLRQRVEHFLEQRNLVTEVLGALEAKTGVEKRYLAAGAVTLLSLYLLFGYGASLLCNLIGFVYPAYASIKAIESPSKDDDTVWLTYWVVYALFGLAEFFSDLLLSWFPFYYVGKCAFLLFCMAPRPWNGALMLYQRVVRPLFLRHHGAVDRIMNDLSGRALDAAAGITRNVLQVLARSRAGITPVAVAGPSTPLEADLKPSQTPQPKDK
UniProt O75884: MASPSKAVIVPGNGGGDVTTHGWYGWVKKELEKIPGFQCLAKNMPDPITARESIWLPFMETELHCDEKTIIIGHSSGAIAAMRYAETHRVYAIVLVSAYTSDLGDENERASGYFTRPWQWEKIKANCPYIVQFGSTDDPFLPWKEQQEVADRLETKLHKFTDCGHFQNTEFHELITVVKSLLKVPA
UniProt Q96IC2: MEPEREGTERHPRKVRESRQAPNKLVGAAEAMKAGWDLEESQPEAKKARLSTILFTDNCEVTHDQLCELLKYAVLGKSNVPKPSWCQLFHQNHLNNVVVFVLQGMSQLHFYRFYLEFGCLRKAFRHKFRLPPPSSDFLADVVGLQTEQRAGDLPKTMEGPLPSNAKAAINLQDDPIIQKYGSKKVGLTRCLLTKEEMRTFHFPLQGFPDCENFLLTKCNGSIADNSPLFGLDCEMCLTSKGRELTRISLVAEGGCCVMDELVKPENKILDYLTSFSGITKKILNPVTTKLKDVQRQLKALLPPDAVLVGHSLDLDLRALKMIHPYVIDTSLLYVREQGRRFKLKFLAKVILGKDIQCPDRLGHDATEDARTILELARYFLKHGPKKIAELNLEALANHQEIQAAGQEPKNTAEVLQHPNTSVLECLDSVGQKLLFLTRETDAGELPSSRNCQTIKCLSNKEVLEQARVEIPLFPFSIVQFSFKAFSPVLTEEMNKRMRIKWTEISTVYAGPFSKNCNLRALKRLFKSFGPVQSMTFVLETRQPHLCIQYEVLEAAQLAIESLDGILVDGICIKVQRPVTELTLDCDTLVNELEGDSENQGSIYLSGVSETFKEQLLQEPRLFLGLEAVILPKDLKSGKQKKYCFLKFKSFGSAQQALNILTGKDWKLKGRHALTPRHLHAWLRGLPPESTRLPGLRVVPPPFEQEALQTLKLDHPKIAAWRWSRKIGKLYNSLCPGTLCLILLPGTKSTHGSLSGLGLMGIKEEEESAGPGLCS
UniProt P06400: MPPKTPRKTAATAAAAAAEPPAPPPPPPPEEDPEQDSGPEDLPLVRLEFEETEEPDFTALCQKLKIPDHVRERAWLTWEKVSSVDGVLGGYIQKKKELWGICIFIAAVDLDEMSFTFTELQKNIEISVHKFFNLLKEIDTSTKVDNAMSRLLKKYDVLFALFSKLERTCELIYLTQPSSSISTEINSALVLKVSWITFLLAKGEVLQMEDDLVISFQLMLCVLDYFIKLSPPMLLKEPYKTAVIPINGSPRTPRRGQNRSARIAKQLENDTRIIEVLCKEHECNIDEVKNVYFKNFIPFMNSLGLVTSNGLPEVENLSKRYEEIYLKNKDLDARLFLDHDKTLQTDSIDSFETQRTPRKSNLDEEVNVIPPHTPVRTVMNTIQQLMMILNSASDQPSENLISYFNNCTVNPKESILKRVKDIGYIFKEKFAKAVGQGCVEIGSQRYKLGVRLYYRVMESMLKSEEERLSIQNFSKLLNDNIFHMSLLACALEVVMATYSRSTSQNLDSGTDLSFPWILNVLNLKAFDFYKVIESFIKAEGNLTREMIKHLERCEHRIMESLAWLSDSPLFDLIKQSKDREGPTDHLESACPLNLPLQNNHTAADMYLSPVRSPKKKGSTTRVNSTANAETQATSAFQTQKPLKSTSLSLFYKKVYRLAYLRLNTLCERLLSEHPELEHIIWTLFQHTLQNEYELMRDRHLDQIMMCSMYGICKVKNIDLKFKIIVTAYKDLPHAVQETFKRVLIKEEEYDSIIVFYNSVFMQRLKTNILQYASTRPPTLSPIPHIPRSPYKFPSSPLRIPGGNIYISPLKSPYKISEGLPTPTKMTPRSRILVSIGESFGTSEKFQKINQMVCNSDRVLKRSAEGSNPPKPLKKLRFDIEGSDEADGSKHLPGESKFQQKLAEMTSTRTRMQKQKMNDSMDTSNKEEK
UniProt Q9BTD8: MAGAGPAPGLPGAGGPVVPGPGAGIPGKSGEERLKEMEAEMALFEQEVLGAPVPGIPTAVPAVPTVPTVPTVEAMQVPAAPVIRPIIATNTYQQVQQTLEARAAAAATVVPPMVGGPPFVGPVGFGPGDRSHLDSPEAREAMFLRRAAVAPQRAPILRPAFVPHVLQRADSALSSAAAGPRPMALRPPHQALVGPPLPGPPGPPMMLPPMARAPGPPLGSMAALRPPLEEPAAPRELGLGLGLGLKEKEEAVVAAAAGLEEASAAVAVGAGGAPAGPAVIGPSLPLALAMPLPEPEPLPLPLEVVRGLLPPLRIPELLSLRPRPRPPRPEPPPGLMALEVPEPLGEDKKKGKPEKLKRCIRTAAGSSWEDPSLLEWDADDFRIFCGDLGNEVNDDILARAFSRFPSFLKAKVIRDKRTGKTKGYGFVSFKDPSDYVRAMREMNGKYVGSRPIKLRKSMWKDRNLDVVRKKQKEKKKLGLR
UniProt Q8IZV5: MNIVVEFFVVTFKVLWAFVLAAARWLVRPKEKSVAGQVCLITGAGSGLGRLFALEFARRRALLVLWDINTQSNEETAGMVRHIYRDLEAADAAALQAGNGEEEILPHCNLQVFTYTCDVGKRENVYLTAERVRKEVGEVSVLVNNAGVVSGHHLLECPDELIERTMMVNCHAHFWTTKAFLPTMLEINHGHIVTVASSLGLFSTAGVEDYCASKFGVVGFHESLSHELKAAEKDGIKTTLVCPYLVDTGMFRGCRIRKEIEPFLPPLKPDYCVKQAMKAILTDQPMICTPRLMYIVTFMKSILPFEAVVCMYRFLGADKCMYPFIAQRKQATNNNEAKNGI

This is one part of the list.

Compound in one assay: CC1=C2C(=CC=C1)N=C(N(C2=O)C3=CC=CC=C3C)CN4C=NC5=C(N=CN=C54)N
The experiment in a line: log2 fold change, soluble protein after heating vs DMSO (PISA); higher = thermal stabilisation; K562 lysate, 10 uM; active = over 0.2 and 3.5 SD of the protein, either way, in both replicates (recomputed). The gist of the method: (§1)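 Log-two fold change in thermal stability relative to solvent controls is reported from duplicates. For each sample, crude K562 extract from dounce-homogenised pellets in PBS pH 7.4 with 1 mM MgCl2, at 1 mg/mL protein, was treated with 10 μM compound for 30 min. Aliquots heated for 3 min across 48°C-58°C were pooled, brought to 0.5% NP-40 at 4°C and cleared at 21,000xg for 90 min. The supernatant was quantified by TMTpro 16plex LC-MS/MS with channel sums equalised.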
RBMY1E (UniProt A6NEQ0): the log2 fold change is inactive: 0.057. The same measure, in the same setting: the figure for RFC5 (UniProt P40937) is inactive: 0.041; for RECQL5 (UniProt O94762) it is inactive: 0.011; for RBM26 isoform 3 (UniProt Q5T8P6) it is inactive: 0.074. Consider RCC1 isoform 2 (UniProt P18754), for which the log2 fold change was inactive: -0.013. On to RBM5 (UniProt P52756), for which the log2 fold change is inactive: 0.062.

RDH13 (UniProt Q8NBN7): the log2 fold change was inactive: 0.016. Consider RECQL (UniProt P46063), for which the log2 fold change is inactive: 0.006. Consider REPIN1 isoform 4 (UniProt Q9BWE0), for which the log2 fold change is inactive: -0.014. RETREG3 (UniProt Q86VR2): the log2 fold change was inactive: 0.039. Consider RAPGEF4 (UniProt Q8WZA2), for which the log2 fold change is inactive: 0.06.

RELN (UniProt P78509): the log2 fold change is inactive: 0.025.

As to RFC1 (UniProt P35251), the log2 fold change was inactive: 0.037.

For RFWD3 (UniProt Q6PCD5), the log2 fold change is inactive: 0. On the same count and under the same terms, the figure for REV3L (UniProt O60673) is inactive: 0.158. On to RCC2 (UniProt Q9P258), for which the log2 fold change is inactive: 0.008. On to REEP6 (UniProt Q96HR9), for which the log2 fold change is inactive: 0.005. Same read-out and setting: then RBBP9 (UniProt O75884), with inactive: 0.028; and RBBP7 (UniProt Q16576), with inactive: 0.009. On to REXO5 (UniProt Q96IC2), for which the log2 fold change is inactive: 0.04. With RB1 (UniProt P06400), the log2 fold change is inactive: -0.002. As for RCN3 (UniProt Q96D15), the log2 fold change was inactive: 0.038. In the case of RBM42 (UniProt Q9BTD8), the log2 fold change was inactive: 0.107. Still for that read-out and setting: then REXO2 (UniProt Q9Y3B8), with inactive: -0.026; and RBBP5 isoform 2 (UniProt Q15291), with inactive: 0.165.

Regarding RDH10 (UniProt Q8IZV5), the log2 fold change is inactive: 0.006.

RFT1 (UniProt Q96AA3): the log2 fold change is inactive: 0.048. For RBM23 isoform 2 (UniProt Q86U06), the log2 fold change was inactive: 0.06. Regarding RBM12 (UniProt Q9NTZ6), the log2 fold change is inactive: -0.009. On the same count and under the same terms, the figure for RBM26 isoform 2 (UniProt Q5T8P6) is inactive: 0.047; for RBM20 (UniProt Q5T481) it is inactive: 0.068. For the target RHAG (UniProt Q02094), the log2 fold change is inactive: 0.145.

Regarding RC3H1 (UniProt Q5TC82), the log2 fold change was inactive: 0.012. On the same count and under the same terms, the figure for RCOR3 isoform 3 (UniProt Q9P2K3) is inactive: 0.046; for RBX1 (UniProt P62877) it is inactive: 0.04.

Compound in a further assay: Cc1sc2c(c1C)C(c1ccc(Cl)cc1)=N[C@@H](CC(=O)OC(C)(C)C)c1nnc(C)n1-2
The description is as above. The gist of the method: as §1
As to RBMY1E (UniProt A6NEQ0), the log2 fold change is inactive: -0.026. For RFC5 (UniProt P40937), the log2 fold change is inactive: 0.034. Take RECQL5 (UniProt O94762): the log2 fold change was inactive: -0.174.

Consider RBM26 isoform 3 (UniProt Q5T8P6), for which the log2 fold change is inactive: -0.047. Consider RCC1 isoform 2 (UniProt P18754), for which the log2 fold change is inactive: 0.045. With RBM5 (UniProt P52756), the log2 fold change is inactive: 0.146.

Take RDH13 (UniProt Q8NBN7): the log2 fold change was inactive: -0.007. The same measure, in the same setting: the figure for RECQL (UniProt P46063) is inactive: -0.013; for REPIN1 isoform 4 (UniProt Q9BWE0) it is inactive: -0.041. RETREG3 (UniProt Q86VR2): the log2 fold change is inactive: 0.045. As for RAPGEF4 (UniProt Q8WZA2), the log2 fold change was inactive: -0.274. As for RELN (UniProt P78509), the log2 fold change is inactive: -0.089. For the target RFC1 (UniProt P35251), the log2 fold change is inactive: 0.095. In the case of RFWD3 (UniProt Q6PCD5), the log2 fold change is inactive: -0.072.

For REV3L (UniProt O60673), the log2 fold change is inactive: -0.241. Same read-out and setting: the figure for RCC2 (UniProt Q9P258) is inactive: 0.012; for REEP6 (UniProt Q96HR9) it is inactive: -0.107; for RBBP7 (UniProt Q16576) it is inactive: -0.042. As for REXO5 (UniProt Q96IC2), the log2 fold change is inactive: 0.039. As to RB1 (UniProt P06400), the log2 fold change is inactive: 0.012. Consider RCN3 (UniProt Q96D15), for which the log2 fold change is inactive: -0.001.

Take RBM42 (UniProt Q9BTD8): the log2 fold change was inactive: 0.103. As for REXO2 (UniProt Q9Y3B8), the log2 fold change is inactive: 0.014. Consider RBBP5 isoform 2 (UniProt Q15291), for which the log2 fold change was inactive: -0.074.

For RDH10 (UniProt Q8IZV5), the log2 fold change is inactive: -0.051. With RFT1 (UniProt Q96AA3), the log2 fold change is inactive: -0.008. Consider RBM23 isoform 2 (UniProt Q86U06), for which the log2 fold change is inactive: 0.011. For the target RBM12 (UniProt Q9NTZ6), the log2 fold change was inactive: -0.002. In the case of RBM26 isoform 2 (UniProt Q5T8P6), the log2 fold change is inactive: 0.001.

Regarding RBM20 (UniProt Q5T481), the log2 fold change was inactive: 0.034. For the target RHAG (UniProt Q02094), the log2 fold change is inactive: -0.066. Consider RC3H1 (UniProt Q5TC82), for which the log2 fold change is inactive: 0.037.

With RCOR3 isoform 3 (UniProt Q9P2K3), the log2 fold change is inactive: 0.011.

For RBX1 (UniProt P62877), the log2 fold change was inactive: 0.123.
